No constants are given. Whether binding was seen depends on the method and setting. Binding seen in cells or lysates may run through a third protein. Some results given as binding are weak or reduced against the parent protein; the word gives no strength.
Target: EGFR (human (endogenous in TR3 and TR5 tumor-derived cells)) (UniProt P00533)
Experiment: co-IP

Protein sequences, listed by entry. Tags and fused reporters are not part of them.
UniProt P42338: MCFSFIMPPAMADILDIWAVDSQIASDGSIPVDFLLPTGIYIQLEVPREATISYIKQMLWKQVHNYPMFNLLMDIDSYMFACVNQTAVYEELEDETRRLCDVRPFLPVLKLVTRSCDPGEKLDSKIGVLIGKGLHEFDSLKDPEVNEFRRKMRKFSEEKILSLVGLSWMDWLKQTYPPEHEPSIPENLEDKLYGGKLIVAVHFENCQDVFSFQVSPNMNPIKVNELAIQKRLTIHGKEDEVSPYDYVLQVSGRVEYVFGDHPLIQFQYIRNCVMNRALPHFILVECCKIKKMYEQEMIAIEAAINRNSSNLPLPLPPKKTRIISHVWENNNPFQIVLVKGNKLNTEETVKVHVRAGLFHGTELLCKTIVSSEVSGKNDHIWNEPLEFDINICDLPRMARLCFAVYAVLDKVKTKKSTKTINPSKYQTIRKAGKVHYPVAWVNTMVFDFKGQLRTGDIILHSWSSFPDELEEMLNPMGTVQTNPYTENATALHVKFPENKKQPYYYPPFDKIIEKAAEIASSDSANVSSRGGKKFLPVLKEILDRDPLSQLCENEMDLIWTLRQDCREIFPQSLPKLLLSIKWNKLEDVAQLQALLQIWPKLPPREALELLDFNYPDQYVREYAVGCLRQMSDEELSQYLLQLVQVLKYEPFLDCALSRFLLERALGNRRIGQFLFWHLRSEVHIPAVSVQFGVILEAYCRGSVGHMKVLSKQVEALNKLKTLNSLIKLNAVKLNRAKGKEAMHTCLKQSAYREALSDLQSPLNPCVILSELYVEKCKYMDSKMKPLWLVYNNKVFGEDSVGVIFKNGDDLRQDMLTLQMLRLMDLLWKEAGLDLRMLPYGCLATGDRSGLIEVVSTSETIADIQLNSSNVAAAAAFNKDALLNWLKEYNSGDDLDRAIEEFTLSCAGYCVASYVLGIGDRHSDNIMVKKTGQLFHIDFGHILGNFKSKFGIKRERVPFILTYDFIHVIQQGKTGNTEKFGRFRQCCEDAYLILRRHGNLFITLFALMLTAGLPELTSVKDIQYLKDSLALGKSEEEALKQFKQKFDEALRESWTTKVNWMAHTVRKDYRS

binding: binds
Substance: PI3Kβ (from UniProt P42338 1-1070)

Source: doi:10.1101/2021.03.18.435801
